Measured values: article PMC7414724
No constants are given. Whether binding was seen depends on the method and setting. In cells and extracts the contact can be indirect. Some binding calls cover weakened binding; strength is not graded here.

Protein sequences, listed by entry. Tags and fused reporters are not part of them. Lines headed by an entry give the natural chain unless they say otherwise; changes in a name come on top.
UniProt P03126: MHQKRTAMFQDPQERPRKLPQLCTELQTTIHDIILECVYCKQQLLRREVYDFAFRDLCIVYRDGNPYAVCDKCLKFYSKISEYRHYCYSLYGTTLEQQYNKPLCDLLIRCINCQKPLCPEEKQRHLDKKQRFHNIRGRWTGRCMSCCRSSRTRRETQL
UniProt Q9UER7: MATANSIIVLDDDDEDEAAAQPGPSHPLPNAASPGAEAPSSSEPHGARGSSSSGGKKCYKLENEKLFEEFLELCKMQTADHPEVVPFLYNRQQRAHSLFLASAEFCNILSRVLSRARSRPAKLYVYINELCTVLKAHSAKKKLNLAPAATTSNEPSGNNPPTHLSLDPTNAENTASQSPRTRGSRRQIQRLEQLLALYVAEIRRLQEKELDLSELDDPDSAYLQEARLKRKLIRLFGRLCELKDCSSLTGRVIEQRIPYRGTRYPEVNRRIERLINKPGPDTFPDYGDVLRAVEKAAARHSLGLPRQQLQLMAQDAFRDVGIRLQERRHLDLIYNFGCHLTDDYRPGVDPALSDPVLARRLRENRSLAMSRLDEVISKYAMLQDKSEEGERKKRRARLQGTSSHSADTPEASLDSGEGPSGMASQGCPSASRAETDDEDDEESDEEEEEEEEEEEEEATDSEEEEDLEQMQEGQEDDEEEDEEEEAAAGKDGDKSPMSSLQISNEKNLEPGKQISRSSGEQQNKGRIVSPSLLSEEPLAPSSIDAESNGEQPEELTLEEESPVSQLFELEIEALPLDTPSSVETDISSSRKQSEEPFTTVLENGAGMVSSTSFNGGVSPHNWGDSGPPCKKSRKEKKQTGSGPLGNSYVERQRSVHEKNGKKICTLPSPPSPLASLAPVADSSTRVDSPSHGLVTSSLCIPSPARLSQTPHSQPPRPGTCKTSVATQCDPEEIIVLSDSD

How the values were obtained:
[1] = molecular target: HPV16 E6 protein (human papillomavirus type 16) (UniProt P03126); assay: co-IP; lysate of C33A cells 48 h after pcDNA3.1(+)/HPV16 E6 transfection; anti-Daxx or anti-E6 antibody at 4 °C overnight, protein A/G agarose, 4 washes with lysate buffer; western blot with anti-Daxx or anti-E6; IgG antibody as negative control
[2] = molecular target: Death domain-associated protein (Daxx) (human (endogenous in C33A)) (UniProt Q9UER7); assay: as above

| Substance | binding [1] | binding [2] |
| --- | --- | --- |
| Death domain-associated protein (Daxx) (from UniProt Q9UER7 1-740) | binds | – |
| HPV16 E6 protein (from UniProt P03126 1-158) | – | binds |
